The supplement of paper PMC4604168 (melanoma cell lines)
Some of the results follow. Repeats are few or missing, and single values can be far off.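 Imaging used 1,536-well plates; nuclei positive for cleaved PARP by antibody were divided by total DNA-stained nuclei to yield the apoptosis fraction. Doses for screening kept most cells viable, and cell lines differ markedly in resting and induced cleaved-PARP levels.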

Legend:
Experiment in all cases: cleaved PARP positive nuclei fraction relative to DMSO control; melanoma cells; higher = more apoptosis
Details in all cases: library dose: low library concentration; 72 h
[1] = test system: CBRC034 (line from a melanoma biopsy)
[2] = test system: COLO792
[3] = test system: COLO800
[4] = test system: COLO829
[5] = test system: G361
[6] = test system: IPC-298
[7] = test system: IST-MEL1
[8] = test system: LB2518-MEL
[9] = test system: LOXIMVI
[10] = test system: MZ2-MEL
[11] = test system: MeWo
[12] = test system: RPMI7951
[13] = test system: RVH-421
[14] = test system: SkMel28
[15] = test system: SkMel30
[16] = test system: SkMel5
[17] = test system: UACC257
[18] = test system: UACC62

Row | SMILES | cleaved PARP positive nuclei fraction [1] | cleaved PARP positive nuclei fraction [2] | cleaved PARP positive nuclei fraction [3] | cleaved PARP positive nuclei fraction [4] | cleaved PARP positive nuclei fraction [5] | cleaved PARP positive nuclei fraction [6] | cleaved PARP positive nuclei fraction [7] | cleaved PARP positive nuclei fraction [8] | cleaved PARP positive nuclei fraction [9] | cleaved PARP positive nuclei fraction [10] | cleaved PARP positive nuclei fraction [11] | cleaved PARP positive nuclei fraction [12] | cleaved PARP positive nuclei fraction [13] | cleaved PARP positive nuclei fraction [14] | cleaved PARP positive nuclei fraction [15] | cleaved PARP positive nuclei fraction [16] | cleaved PARP positive nuclei fraction [17] | cleaved PARP positive nuclei fraction [18]
1 | O=C(O)c1ccc(-c2c[nH]c3ncc(-c4ccccc4)cc23)cc1C1CCCC1 + COc1ccc(COc2ccc(Cc3cnc(N)nc3N)cc2OC)cc1 [GW2580] (first compound 0.16 µM, partner dose 1 µM) | 53.5% | 79.9% | 29.5% | 179% | 156% | 87.1% | 191% | 84.3% | 27.1% | 82.9% | 73.3% | 44.3% | 53% | 174% | 161% | 60.1% | 51.8% | 75.1%
2 | COc1cc2c(Oc3ccc4[nH]c(C)cc4c3F)ncnc2cc1OCCCN1CCCC1 [cediranib] + COC(=O)c1sccc1S(=O)(=O)Nc1ccc(Nc2ccccc2)cc1OC [GSK0660] (first compound 0.4 µM, partner dose 1 µM) | 183% | 97.9% | 163% | 91.8% | 58.1% | 82.4% | 58.8% | 85.7% | 80.6% | 43.8% | 196% | 87.8% | 51.3% | 71.8% | 42% | 39.4% | 149% | 41.6%
3 | O=S(=O)(c1ccccc1)N(CC(F)(F)F)c1ccc(C(O)(C(F)(F)F)C(F)(F)F)cc1 + COc1cc2ncnc(Nc3ccc(Oc4ccccc4)cc3)c2cc1OC [SrcI1] (first compound 1.4 µM, partner dose 2 µM) | 81% | 101% | 128% | 71.4% | 107% | 87.6% | 125% | 209% | 67.1% | 84.1% | 109% | 73.5% | 71.5% | 135% | 64.4% | 31.8% | 133% | 110%
4 | COc1cc2ncnc(Nc3ccc(Oc4ccccc4)cc3)c2cc1OC + Cc1cc([N+](=O)[O-])ccc1NS(=O)(=O)c1cc(Cl)ccc1Cl [FH535] (first compound 2 µM, partner dose 1 µM) | 418% | 192% | 96.2% | 34.6% | 73.6% | 202% | 160% | 143% | 62.5% | 127% | 58.1% | 75.9% | 103% | 162% | 59.2% | 30.5% | 200% | 80.9%
5 | CN(NC(=O)CC(=O)NN(C)C(=S)c1ccccc1)C(=S)c1ccccc1 + CCCCCCCCCCCC1=C(O)C(=O)C=C(O)C1=O [Embelin] (first compound 0.006 µM, partner dose 1.2 µM) | 58% | 173% | 302% | 42.3% | 56.2% | 46.3% | 142% | 98.9% | 66.2% | 156% | 24.4% | 83.1% | 106% | 30.4% | 89.5% | 112% | 118% | 50.6%
6 | Cc1cc([N+](=O)[O-])ccc1NS(=O)(=O)c1cc(Cl)ccc1Cl + COc1cc(N2CCC(N3CCN(C)CC3)CC2)ccc1Nc1ncc(Cl)c(Nc2ccccc2S(=O)(=O)C(C)C)n1 [NVP-TAE684] (first compound 1 µM, partner dose 0.08 µM) | 196% | 95.2% | 57.2% | 55.5% | 109% | 47.4% | 265% | 170% | 97.1% | 50% | 250% | 80.1% | 410% | 72.3% | 46.1% | 126% | 169% | 141%
7 | COc1ccc2c(c1)CCC1C2CCC2(C)C(NCCCCCCN3C(=O)C=CC3=O)CCC12 (configuration not stated) + Cc1cc([N+](=O)[O-])ccc1NS(=O)(=O)c1cc(Cl)ccc1Cl [FH535] (first compound 0.4 µM, partner dose 1 µM) | 270% | 162% | 52.8% | 135% | 203% | 86.7% | 89.4% | 79% | 166% | 86.3% | 233% | 42.3% | 32.2% | 160% | 22.8% | 42.3% | 55% | 35.2%
8 | COc1ccc(COc2ccc(Cc3cnc(N)nc3N)cc2OC)cc1 + c1cc(-c2cnn3cc(-c4ccc(OCCN5CCCCC5)cc4)cnc23)ccn1 [Dorsomorphin] (first compound 1 µM, partner dose 0.4 µM) | 106% | 50.7% | 103% | 80% | 110% | 45% | 31.5% | 40.8% | 72.2% | 90.3% | 93.8% | 91.1% | 84.3% | 175% | 28.9% | 67% | 131% | 34.9%
9 | COc1ccc(-c2ccc3c(N4CCOCC4)nc(N4C[C@@H](C)O[C@@H](C)C4)nc3n2)cc1CO + O=S(=O)(c1ccccc1)N(CC(F)(F)F)c1ccc(C(O)(C(F)(F)F)C(F)(F)F)cc1 [T0901317] (first compound 0.02 µM, partner dose 1.4 µM) | 46.9% | 87.4% | 89.1% | 124% | 49.5% | 92.7% | 121% | 72.8% | 48.3% | 67.3% | 29.8% | 213% | 249% | 163% | 140% | 94.8% | 217% | 63.3%

Single values from above:
In cleaved PARP positive nuclei fraction [3], Cc1cc([N+](=O)[O-])ccc1NS(=O)(=O)c1cc(Cl)ccc1Cl + COc1cc(N2CCC(N3CCN(C)CC3)CC2)ccc1Nc1ncc(Cl)c(Nc2ccccc2S(=O)(=O)C(C)C)n1 [NVP-TAE684] (first compound 1 µM, partner dose 0.08 µM) reads 57.2%
In cleaved PARP positive nuclei fraction [10], COc1ccc2c(c1)CCC1C2CCC2(C)C(NCCCCCCN3C(=O)C=CC3=O)CCC12 (configuration not stated) + Cc1cc([N+](=O)[O-])ccc1NS(=O)(=O)c1cc(Cl)ccc1Cl [FH535] (first compound 0.4 µM, partner dose 1 µM) reads 86.3%
